Experiment [1] has as its target MAGE-A4 MHD domain, residues 101-317, His tag cleaved (human) (UniProt P43358). In words: AUC; sedimentation velocity, 4°C, 45,000 rpm, 10 mM HEPES pH 7.5, 150 mM NaCl, 0.5 mM TCEP; MAGE-A3 at 0.75 mg/ml, MAGE-A4 at 0.5 mg/ml; c(s) analysis with SEDFIT; both purified.
For experiment [2] the target is unchanged. The experiment can be described thus: SEC; gel filtration of MAGE-A4 with the tag cleaved, without galactose; column and buffer not given; both purified. (In general: In gel filtration, larger molecules generally elute earlier.)
The target in experiment [3] is MAGE-A3 MHD domain, residues 104-314 (human) (UniProt P43357). The experiment can be described thus: crystal structure; MAGE-A3 104-314, 4°C, 15% PEG 3350, 0.1M Mg Formate; one molecule in the asymmetric unit, dimers A and B formed with symmetry-related molecules; both purified.

Sequences of proteins named here, by UniProt entry; tags and fusion partners are left off. Residues count along the entry.
UniProt P43358, residues 101-317: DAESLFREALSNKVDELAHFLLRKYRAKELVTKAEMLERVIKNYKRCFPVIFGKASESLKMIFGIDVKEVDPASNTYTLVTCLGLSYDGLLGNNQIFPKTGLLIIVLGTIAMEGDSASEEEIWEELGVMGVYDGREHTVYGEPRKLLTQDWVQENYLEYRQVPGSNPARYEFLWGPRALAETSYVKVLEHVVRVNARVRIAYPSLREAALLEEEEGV

Results are given in words; binding and its absence hold for the method and conditions named. Some entries that bind do so weakly or less than the wild type.

Consider “MAGE-A4 MHD domain, residues 101-317, His tag cleaved (from UniProt P43358 101-317) (domain or fragment)”, for which the results for the binding entry in experiment [1] and in experiment [2] were “no binding (tested: 0.5 mg/ml)” and “no binding”, respectively.

B1: MAGE-A3 MHD domain, residues 104-314 (domain or fragment, human, UniProt P43357 104-314, looked up)
chain: EFQAALSRKVAELVHFLLLKYRAREPVTKAEMLGSVVGNWQYFFPVIFSKASSSLQLVFGIELMEVDPIGHLYIFATCLGLSYDGLLGDNQIMPKAGLLIIVLAIIAREGDCAPEEKIWEELSVLEVFEGREDSILGDPKKLLTQHFVQENYLEYRQVPGSDPACYEFLWGPRALVETSYVKVLHHMVKISGGPHISYPPLHEWVLREGEE
notes: MAGE-A3, human, MAGE homology domain (MHD), residues 104-314; Dimer in solution by AUC and SAXS (dimer B interface); The final 4 residues are disordered in the crystal structure; also called MAGE-A3^104-314; melanoma associated antigen A3
On to B1, for which, in experiment [3], the binding result was “binds”.
